{"source": "PubChem BioAssay AID1259308 (NCATS, 2017)", "aim": "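Genes whose loss raises luciferase production in HEK293 cells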 (primary screen)", "cells": "human HEK293 embryonic kidney cells stably expressing firefly luciferase (HEK-CMV-Luc2-Hygro)", "reagent": "single siRNA against human genes, 0.8 pmol siRNA per well", "timing": "72 h", "detection": "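Reporter luminescence and viable-cell signal on separate replicate plates, given as percent of non-targeting control and median/MAD z-scores, plus per-cell luciferase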", "direction": "total luciferase, z-score: higher = more reporter protein produced", "rule for the call": "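Active when the median/MAD z-score for overall luciferase is greater than 3; a gene was taken forward for validation with new siRNAs if at least two of its three siRNAs passed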", "meaning of the calls": "active = raised luciferase; inactive = no rise", "note": "In all, the deposit lists about 59,000 reagents; below is a random part of them. About 1,510 of all reagents (2.6%) were called active. 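Calls use total luciferase alone and ignore viability, so some active siRNAs may act by altering cell number.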 Unmarked entries are inactive. The numbers tell different reagents against one gene apart. Not all columns of the deposit are shown. No sequences are given here."}
{"Target gene": "NFYC", "siRNA no.": 1, "total luciferase, z-score": 1.01}
{"Target gene": "NFYC", "siRNA no.": 2, "total luciferase, z-score": 2.44}
{"Target gene": "NFYC", "siRNA no.": 3, "total luciferase, z-score": 1.22}
{"Target gene": "PIGR", "siRNA no.": 1, "total luciferase, z-score": 0.693}
{"Target gene": "PIGR", "siRNA no.": 2, "total luciferase, z-score": 0.315}
{"Target gene": "PIGR", "siRNA no.": 3, "total luciferase, z-score": 0.516}
{"Target gene": "RERGL", "siRNA no.": 1, "total luciferase, z-score": 0.171}
{"Target gene": "RERGL", "siRNA no.": 2, "total luciferase, z-score": -0.173}
{"Target gene": "RERGL", "siRNA no.": 3, "total luciferase, z-score": -0.0121}
{"Target gene": "CLN8", "siRNA no.": 1, "total luciferase, z-score": 1.53}
{"Target gene": "CLN8", "siRNA no.": 2, "total luciferase, z-score": -0.157}
{"Target gene": "CLN8", "siRNA no.": 3, "total luciferase, z-score": 0.301}
{"Target gene": "RALY", "siRNA no.": 1, "total luciferase, z-score": 2.57}
{"Target gene": "RALY", "siRNA no.": 2, "total luciferase, z-score": -0.678}
{"Target gene": "RALY", "siRNA no.": 3, "total luciferase, z-score": 0.159}
{"Target gene": "ASIC2", "siRNA no.": 1, "total luciferase, z-score": -0.249}
{"Target gene": "ASIC2", "siRNA no.": 2, "total luciferase, z-score": -0.555}
{"Target gene": "ASIC2", "siRNA no.": 3, "total luciferase, z-score": 0.557}
{"Target gene": "ASMT", "siRNA no.": 1, "total luciferase, z-score": 1.11}
{"Target gene": "ASMT", "siRNA no.": 2, "total luciferase, z-score": 0.131}
{"Target gene": "ASMT", "siRNA no.": 3, "total luciferase, z-score": 1.87}
{"Target gene": "UMODL1", "siRNA no.": 1, "total luciferase, z-score": -1.33}
{"Target gene": "UMODL1", "siRNA no.": 2, "total luciferase, z-score": -1.1}
{"Target gene": "UMODL1", "siRNA no.": 3, "total luciferase, z-score": -1.25}
{"Target gene": "TYR", "siRNA no.": 1, "total luciferase, z-score": -0.0265}
{"Target gene": "TYR", "siRNA no.": 2, "total luciferase, z-score": -0.847}
{"Target gene": "TYR", "siRNA no.": 3, "total luciferase, z-score": -2.05}
{"Target gene": "RFT1", "siRNA no.": 1, "total luciferase, z-score": 0.551}
{"Target gene": "RFT1", "siRNA no.": 2, "total luciferase, z-score": 0.698}
{"Target gene": "RFT1", "siRNA no.": 3, "total luciferase, z-score": -0.171}
{"Target gene": "SEPTIN11", "siRNA no.": 1, "total luciferase, z-score": -0.423}
{"Target gene": "SEPTIN11", "siRNA no.": 2, "total luciferase, z-score": -0.293}
{"Target gene": "SEPTIN11", "siRNA no.": 3, "total luciferase, z-score": -0.728}
{"Target gene": "FAF2", "siRNA no.": 1, "total luciferase, z-score": 0.611}
{"Target gene": "FAF2", "siRNA no.": 2, "total luciferase, z-score": 1.07}
{"Target gene": "FAF2", "siRNA no.": 3, "total luciferase, z-score": 0.354}
{"Target gene": "IGSF6", "siRNA no.": 1, "total luciferase, z-score": -0.432}
{"Target gene": "IGSF6", "siRNA no.": 2, "total luciferase, z-score": 0.229}
{"Target gene": "IGSF6", "siRNA no.": 3, "total luciferase, z-score": 0.333}
{"Target gene": "AMOTL1", "siRNA no.": 1, "total luciferase, z-score": 0.646}
{"Target gene": "AMOTL1", "siRNA no.": 2, "total luciferase, z-score": -0.435}
{"Target gene": "AMOTL1", "siRNA no.": 3, "total luciferase, z-score": 0.11}

Reformatted: 4 of the entries above
Target gene,siRNA no.,"total luciferase, z-score"
IGSF6,3,0.333
AMOTL1,1,0.646
AMOTL1,2,-0.435
AMOTL1,3,0.11
